PubChem BioAssay AID504786 | Drosophila RNAi Screening Center | 2011

Aim: 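Fly genes required for HIF-dependent transcription when hypoxia is mimicked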 (primary screen)
System: Drosophila S2 cells with a stable HIF luciferase reporter
Knock-down reagent: long dsRNA against Drosophila genes, about 0.2 µg dsRNA per well of a 384-well plate
Timing: three days of knock-down, then 20 h of DFO before reading
Conditions: desferrioxamine (DFO) at 100 µM, an iron chelator that mimics hypoxia, for 20 h
Read-out: 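HIF reporter luminescence in cells given 100 µM DFO for 20 h, using the mouse ldh-a hypoxia-response element, scored as per-plate z-scores; higher means greater loss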
Direction: z-score: higher = stronger loss of HIF reporter signal
In all, the deposit lists about 21,000 reagents; below is a random part of those with a known target gene and a result. 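Primary screen; positive scores mean lost reporter signal, so the sign may be inverted from the usual convention.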 The numbers tell different reagents against one gene apart. A plus sign joins genes that one reagent is predicted to hit.

| Gene | reagent | z-score, replicate 1 | z-score, replicate 2 | z-score, replicate 3 | z-score, replicate 4 |
| --- | --- | --- | --- | --- | --- |
| scra (scraps) | 1 | -0.2 | 0.3 | – | – |
| CG8036 | 1 | -0.4 | 1 | – | – |
| ens (ensconsin) | 1 | -0.2 | -0.5 | – | – |
| CG2931 | 1 | -0.5 | 1.4 | – | – |
| CG4707 | 1 | 0.1 | 0.1 | – | – |
| CG13081 | 1 | -0.2 | -0.2 | – | – |
| CG11162 | 1 | -0.2 | 0.1 | – | – |
| Odj (Oddjob) | 1 | -0.1 | -0.2 | – | – |
| IntS1 (Integrator 1) | 1 | 0.8 | 0.5 | – | – |
| CG31345 | 1 | 0.3 | -0.1 | – | – |
| CG31345 | 2 | -0.3 | -0.4 | – | – |
| CG42496 + Ppcdc | 1 | 2.1 | 0.2 | 2.3 | 0.8 |

In a second layout: 5 of the entries above
Gene | reagent | z-score, replicate 1 | z-score, replicate 2 | z-score, replicate 3 | z-score, replicate 4
ens (ensconsin) | 1 | -0.2 | -0.5 | – | –
CG2931 | 1 | -0.5 | 1.4 | – | –
CG4707 | 1 | 0.1 | 0.1 | – | –
CG13081 | 1 | -0.2 | -0.2 | – | –
CG11162 | 1 | -0.2 | 0.1 | – | –

The listing continues:
| Gene | reagent | z-score, replicate 1 | z-score, replicate 2 | z-score, replicate 3 | z-score, replicate 4 |
| --- | --- | --- | --- | --- | --- |
| Alg14 (ALG14, UDP-N-acetylglucosaminyltransferase subunit) | 1 | -0.4 | 0.2 | – | – |
| ATPsynE (ATP synthase, subunit E) | 1 | 0 | 0.2 | – | – |
| Mgat4a | 1 | -0.4 | -0.1 | – | – |
| Mgat4a | 2 | -0.1 | -0.4 | – | – |
| CG33332 | 1 | -0.3 | -0.8 | – | – |
| CG16904 | 1 | -0.4 | -0.3 | – | – |
| Hip14 (Huntingtin-interacting protein 14) | 1 | -0.3 | -0.1 | – | – |
| Pex23 (Peroxin 23) | 1 | -0.3 | -0.6 | – | – |
| Pex23 (Peroxin 23) | 2 | -0.4 | -0.3 | – | – |
| Sod1 (Superoxide dismutase 1) | 1 | -0.3 | -0.4 | – | – |
| CG14154 | 1 | -0.2 | 0.2 | – | – |
| CG6652 | 1 | -0.3 | -0.6 | – | – |
| PH4alphaSG1 (prolyl-4-hydroxylase-alpha SG1) | 1 | -0.5 | -0.5 | – | – |
| CG10209 | 1 | -0.4 | -0.4 | – | – |
| CG9864 | 1 | -0.3 | 0 | – | – |
| UGP + PGRP-LF | 1 | -0.2 | -0.4 | – | – |
| Klp64D (Kinesin-like protein at 64D) | 1 | -0.5 | -0.8 | – | – |
| Pgant1 (Polypeptide N-Acetylgalactosaminyltransferase 1) | 1 | -0.4 | -0.4 | – | – |
| CG11523 | 1 | -0.4 | -0.6 | – | – |
| CG18278 + CG30059 | 1 | -0.2 | -0.4 | – | – |
| Obp83b (Odorant-binding protein 83b) | 1 | 0.1 | -0.2 | – | – |
| hlk (hulk) | 1 | 0 | -0.1 | – | – |
| hlk (hulk) | 2 | -0.2 | -0.2 | – | – |
